# Laboratory results reported in patent US20230248626A1, “Compositions Comprising (Bio)-Alkanediols” (Symrise AG, priority 0001, published 2023).
# Some results were stated once for a whole list of compounds, not compound by compound.
# Tested on: reactive oxygen species (ROS) on ex vivo skin
# Assay: DCF assay, ROS score on ex vivo skin, aqueous/alcoholic (ethanolic) test system
# Type: cell-based
# Details: for reduction of ROS score versus vehicle with only Cannabidiol: 5 ppm Cannabidiol plus 0.5% alkanediol; for reduction of ROS score versus vehicle with only Dihydroavenanthramide D: 50 ppm Dihydroavenanthramide D plus 0.5% alkanediol
# Procedure: A dichlorofluorescein test (DCF) assay was performed in order to determine the amount of reactive oxygen species (ROS) on ex vivo skin treated with different test samples in a lipophilic or an aqueous/alcoholic system as described below.
# DCF assay—assay principle: Ex vivo skin was incubated with 2′,7′-dichlorodihydrofluorescein diacetate at 37° C., 5% CO2. After PBS washing, samples were exposed or not to cumene hydroperoxide. Immediately after exposure, ex vivo skin samples were frozen in liquid nitrogen and 5 μm cryostat sections were made and fixed with acetone to allow the visualisation of fluorescence generated by ROS in cells of the reconstructed skins. The resulting fluorescence was measured at EX/EM 504/524 nm. Green fluorescence was quantified in ex vivo skin using ImageJ software. The depth of immunostaining was measured as follows: green DCFH-DE positive cells were automatically detected using Histolab software and the distance between dermal epidermal junction and the deepest positive cells were measured in each condition. Means were compared using a student's test. Two means were considered statistically different when p<0.005.
# The image acquisition was performed by using Olympus BX51 microscope and Olympus DP70 camera. For each skin sample two skin sections have been taken and the related fluorescent images acquired and analyzed. Thus, for each test condition, 12 images have been acquired and analyzed (i.e. 12 data). The analysis of fluorescence has been performed within the dermis area. For each image the upper dermis has been analyzed by evaluating the fluorescence through modified Image-J application (NIH, USA). The analyzed area is selected from the upper part by following the perimeter of the basal lamina, to the deep dermis, by carefully avoiding the risk of including irregularities and agglomerates, such as blood vessels, sebaceous glands, hair follicles. The obtained value has been normalized upon the dimension of the selected area.
# In addition, as positive control an AOX mix is always co-tested, i.e., as bench mark for the ROS analysis. The AOX mix is a mixture of the following antioxidants: 15% vitamin C, 1% vitamin E, 0.5% ferulic acid in a EtOH/H2O (50:50) mixture.
# ROS score method description: The pigmentation score is based on the following process steps: • (1) Analysis of the image based on pixel grey intensities; • (2) Selection of an informative area excluding the pixel area not covered from tissue; • (3) Transformation of pixel grey intensities in degrees of L*; • (4) Normalization of the obtained values on the ratio between the selected area and the area of the slide.
# An increased level of ROS (reactive oxygen species) led to an increased amount of fluorescence. […]
Structure (SMILES),reduction of ROS score versus vehicle with only Cannabidiol,reduction of ROS score versus vehicle with only Dihydroavenanthramide D
"CCCCCC(O)CO (stereo not shown) [1,2-heptanediol]",more than 70%,more than 60%
"CCCCC(O)C(C)O (stereo not shown) [2,3-heptanediol]",more than 70%,more than 60%
